The target of this assay is T1, NOLC1 (human (endogenous in MCF10A and CA1D)) (UniProt Q14978).
T1 sequence: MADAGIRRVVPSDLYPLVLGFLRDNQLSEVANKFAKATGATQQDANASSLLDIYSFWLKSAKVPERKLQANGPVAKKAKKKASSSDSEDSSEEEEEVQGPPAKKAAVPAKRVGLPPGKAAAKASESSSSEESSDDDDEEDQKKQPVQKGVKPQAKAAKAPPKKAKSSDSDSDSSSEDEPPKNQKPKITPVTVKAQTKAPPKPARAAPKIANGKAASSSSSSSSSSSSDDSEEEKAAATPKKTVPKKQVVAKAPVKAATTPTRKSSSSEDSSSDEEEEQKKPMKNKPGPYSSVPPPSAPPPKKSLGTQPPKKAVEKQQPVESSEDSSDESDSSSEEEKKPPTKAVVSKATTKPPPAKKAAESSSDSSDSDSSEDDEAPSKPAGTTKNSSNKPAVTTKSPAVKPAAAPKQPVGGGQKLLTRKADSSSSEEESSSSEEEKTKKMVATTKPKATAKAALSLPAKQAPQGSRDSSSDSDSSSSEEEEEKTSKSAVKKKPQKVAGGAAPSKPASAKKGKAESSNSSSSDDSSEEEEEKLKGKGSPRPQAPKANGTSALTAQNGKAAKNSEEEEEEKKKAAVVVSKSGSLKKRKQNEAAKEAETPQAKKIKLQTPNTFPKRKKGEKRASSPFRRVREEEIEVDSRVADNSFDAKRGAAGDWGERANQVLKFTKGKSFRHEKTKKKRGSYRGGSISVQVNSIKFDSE
Put plainly: co-IP; endogenous NOLC1 and WDR26 in MCF10A and CA1D cells kept in growth media 48 h; cells with lncRNA (TROLL-2, TROLL-3) overexpression or siRNAs; 50 mM Tris-HCl pH 8.0, 150 mM NaCl, 1 mM EDTA, 1% NP-40; western blot. Background: Immunoblotting shows a protein as a band on a membrane.

Sequences of proteins named here, by UniProt entry; tags and fusion partners are left off.
UniProt Q9H7D7: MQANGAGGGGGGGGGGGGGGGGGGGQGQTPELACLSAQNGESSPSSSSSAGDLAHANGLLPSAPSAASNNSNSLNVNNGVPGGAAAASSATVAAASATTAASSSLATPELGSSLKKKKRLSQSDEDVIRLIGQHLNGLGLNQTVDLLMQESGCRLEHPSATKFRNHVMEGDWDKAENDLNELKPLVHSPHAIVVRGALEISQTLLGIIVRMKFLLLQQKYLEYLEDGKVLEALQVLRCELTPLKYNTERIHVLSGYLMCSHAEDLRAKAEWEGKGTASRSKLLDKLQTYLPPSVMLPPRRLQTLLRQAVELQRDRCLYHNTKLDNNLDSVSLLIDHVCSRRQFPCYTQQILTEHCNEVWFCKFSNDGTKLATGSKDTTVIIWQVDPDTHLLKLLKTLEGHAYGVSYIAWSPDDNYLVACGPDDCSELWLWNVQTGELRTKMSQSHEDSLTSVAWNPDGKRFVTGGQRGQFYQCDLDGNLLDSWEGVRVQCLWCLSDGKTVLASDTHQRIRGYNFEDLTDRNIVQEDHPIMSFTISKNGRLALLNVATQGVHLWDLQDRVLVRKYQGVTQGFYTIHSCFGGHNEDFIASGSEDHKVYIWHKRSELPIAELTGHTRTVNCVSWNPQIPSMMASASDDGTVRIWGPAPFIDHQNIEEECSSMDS

Results are given in words; binding and its absence hold for the method and conditions named. Binding seen in cells or lysates may run through a third protein. Some entries that bind do so weakly or less than the wild type.

Regarding “WDR26 (endogenous) (from UniProt Q9H7D7 1-661)”, the binding result is given as “binds”.

Source of the values: article PMC7561725.
